Results are given in words; binding and its absence hold for the method and conditions named. In cells and extracts the contact can be indirect. Some results given as binding are weak or reduced against the parent protein; the word gives no strength.
Target: PSMC3 (TBP1), a 19S proteasome subunit (human (endogenous in NCI-H1975)) (UniProt P17980)
Assay: co-IP; overexpressed FRA1-WT or FRA1-C97A, complex formation with PSMC3 (SI Appendix, Fig. S3E); which protein was precipitated is not told in the main text

Sequences of proteins named here, by UniProt entry; tags and fusion partners are left off.
UniProt P17980: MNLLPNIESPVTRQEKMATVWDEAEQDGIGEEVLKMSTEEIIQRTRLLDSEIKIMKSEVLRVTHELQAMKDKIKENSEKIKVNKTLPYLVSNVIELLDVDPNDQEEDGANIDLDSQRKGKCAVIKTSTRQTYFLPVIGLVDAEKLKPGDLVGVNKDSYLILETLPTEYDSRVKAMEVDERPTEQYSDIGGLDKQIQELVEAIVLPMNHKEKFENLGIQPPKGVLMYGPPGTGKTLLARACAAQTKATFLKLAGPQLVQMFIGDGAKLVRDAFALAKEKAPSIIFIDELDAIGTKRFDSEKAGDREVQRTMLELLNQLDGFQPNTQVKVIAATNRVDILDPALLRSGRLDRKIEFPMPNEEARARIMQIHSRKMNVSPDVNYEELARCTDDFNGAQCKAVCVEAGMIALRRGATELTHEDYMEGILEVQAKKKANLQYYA

B1: FRA1-C97A, ADP-ribosylation deficient mutant, ectopically expressed (protein, UniProt P15407 1-271)
chain: MFRDFGEPGPSSGNGGGYGGPAQPPAAAQAAQQKFHLVPSINTMSGSQELQWMVQPHFLGPSSYPRPLTYPQYSPPQPRPGVIRALGPPPGVRRRPAEQISPEEEERRRVRRERNKLAAAKCRNRRKELTDFLQAETDKLEDEKSGLQREIEELQKQKERLELVLEAHRPICKIPEGAKEGDTGSTSGTSSPPAPCRPVPCISLSPGPVLEPEALHTPTLMTTPSLTPFTPSLVFTYPSTPEPCASAHRKSSSSSGDPSSDPLGSPTLLAL
binding: binds
